T/C data for one compound are collected here from PubChem BioAssay AID272 (DTP/NCI, 2004).

In this experiment the test system is Lewis lung carcinoma i.m., BDF1 mice, T/C %. As to the kind of experiment: NCI In Vivo Anticancer Drug Screen. Data for tumor model Lewis Lung Carcinoma (intramuscular) in B6D2F1 (BDF1) mice. The protocol:
The antitumor activity of compounds was measured in mice bearing transplantable tumors. Survival or tumor size were measured and the results are expressed as the measurement made in the treated group (T) divided by the measurement made in the vehicle treated control group (C). The tumor model used in this assay is Lewis Lung Carcinoma (intramuscular) in B6D2F1 (BDF1) mice

This continues a long series; more values of the same kind are listed elsewhere. Inconclusive results are not listed.

In the case of `CCc1nc(N)nc(N)c1-c1ccc(Cl)cc1`, the T/C (endpoint: mean tumor weight, dose: 32.0 mg/kg/injection, schedule: Q08DX002 (ip), vehicle: Klucel (hydroxypropylcellulose) (HPC), higher = larger tumour) is 114 % of control; the T/C (endpoint: median survival time, dose: 4.0 mg/kg/injection, schedule: Q01DX009 (oral), vehicle: Klucel (hydroxypropylcellulose) (HPC), higher = longer survival) is 111 % of control; the T/C (endpoint: median survival time, dose: 4.0 mg/kg/injection, schedule: Q06HX012 (ip), vehicle: Klucel (hydroxypropylcellulose) (HPC), higher = longer survival) was 121 % of control; the T/C (endpoint: median survival time, dose: 8.0 mg/kg/injection, schedule: Q01DX009 (sc), vehicle: Klucel (hydroxypropylcellulose) (HPC), higher = longer survival) was 119 % of control; the T/C (endpoint: median survival time, dose: 8.0 mg/kg/injection, schedule: Q06HX008 (ip), vehicle: Klucel (hydroxypropylcellulose) (HPC), higher = longer survival) is 111 % of control; the T/C (endpoint: median survival time, dose: 16.0 mg/kg/injection, schedule: Q01DX001 (oral), vehicle: Klucel (hydroxypropylcellulose) (HPC), higher = longer survival) was 119 % of control. In addition, the T/C was 114 % of control (endpoint: median survival time, dose: 16.0 mg/kg/injection, schedule: Q01DX009 (ip), vehicle: Klucel (hydroxypropylcellulose) (HPC), higher = longer survival); 114 % of control (endpoint: median survival time, dose: 16.0 mg/kg/injection, schedule: Q06HX004 (ip), vehicle: Klucel (hydroxypropylcellulose) (HPC), higher = longer survival); 114 % of control (endpoint: median survival time, dose: 16.0 mg/kg/injection, schedule: Q06HX008 (ip), vehicle: Klucel (hydroxypropylcellulose) (HPC), higher = longer survival); 123 % of control (endpoint: median survival time, dose: 16.0 mg/kg/injection, schedule: Q06HX012 (ip), vehicle: Klucel (hydroxypropylcellulose) (HPC), higher = longer survival); 110 % of control (endpoint: median survival time, dose: 25.0 mg/kg/injection, schedule: Q01DX011 (ip), vehicle: steriod suspending solution, higher = longer survival); 119 % of control (endpoint: median survival time, dose: 32.0 mg/kg/injection, schedule: Q01DX009 (ip), vehicle: Klucel (hydroxypropylcellulose) (HPC), higher = longer survival). The T/C runs as follows: (endpoint: median survival time, dose: 32.0 mg/kg/injection, schedule: Q01DX009 (oral), vehicle: Klucel (hydroxypropylcellulose) (HPC), higher = longer survival) 111 % of control; (endpoint: median survival time, dose: 32.0 mg/kg/injection, schedule: Q01DX009 (sc), vehicle: Klucel (hydroxypropylcellulose) (HPC), higher = longer survival) 123 % of control; (endpoint: median survival time, dose: 64.0 mg/kg/injection, schedule: Q01DX001 (ip), vehicle: Klucel (hydroxypropylcellulose) (HPC), higher = longer survival) 123 % of control; (endpoint: median survival time, dose: 64.0 mg/kg/injection, schedule: Q08DX002 (ip), vehicle: Klucel (hydroxypropylcellulose) (HPC), higher = longer survival) 121 % of control; (endpoint: median survival time, dose: 128.0 mg/kg/injection, schedule: Q01DX001 (sc), vehicle: Klucel (hydroxypropylcellulose) (HPC), higher = longer survival) 119 % of control; (endpoint: median survival time, dose: 128.0 mg/kg/injection, schedule: Q04DX003 (ip), vehicle: Klucel (hydroxypropylcellulose) (HPC), higher = longer survival) 119 % of control.
